PubChem BioAssay AID1259308, NCATS | 2017

Aim: 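Genes whose loss raises luciferase production in HEK293 cells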 (primary screen)
System: human HEK293 embryonic kidney cells stably expressing firefly luciferase (HEK-CMV-Luc2-Hygro)
Knock-down reagent: single siRNA against human genes, 0.8 pmol siRNA per well
Duration: 72 h
Read-out: 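Luciferase light (ONE-Glo) measured on one replicate plate set and viability (CellTiter-Glo) on the other, scaled to a negative control siRNA, with robust z-scores and luciferase per cell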
Reading the numbers: total luciferase, z-score: higher = more reporter protein produced
Rule for the call: 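Active when the median/MAD z-score for overall luciferase is greater than 3; a gene was taken forward for validation with new siRNAs if at least two of its three siRNAs passed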
Meaning of the calls: active = raised luciferase; inactive = no rise
Shown is an unselected part of about 59,000 deposited reagents. Of all reagents, about 1,510 (2.6%) are marked active. 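Calls use total luciferase alone and ignore viability, so some active siRNAs may act by altering cell number.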 Reagents against one gene are numbered here. Not all columns of the deposit are shown.

total luciferase, z-score, by gene and reagent
ZNF692 (zinc finger protein 692): #1 -1.49 inactive; #2 -0.79 inactive; #3 -0.63 inactive
TINAG (tubulointerstitial nephritis antigen): #1 -0.58 inactive; #2 -1.22 inactive; #3 -0.266 inactive
SMR3B (submaxillary gland androgen regulated protein 3B): #1 0.561 inactive; #2 -1.2 inactive; #3 -0.385 inactive
GTF2F2 (general transcription factor IIF subunit 2): #1 0.276 inactive; #2 -0.558 inactive; #3 0.172 inactive
SPRR1A (small proline rich protein 1A): #1 -2.52 inactive; #2 -0.244 inactive; #3 2.27 inactive
COL17A1 (collagen type XVII alpha 1 chain): #1 0.428 inactive; #2 -0.287 inactive; #3 3.97 active
SETDB2 (SET domain bifurcated histone lysine methyltransferase 2): #1 -0.693 inactive; #2 -1.35 inactive; #3 -1.54 inactive
ZNF626 (zinc finger protein 626): #1 5.21 active; #2 1.05 inactive; #3 -0.182 inactive
SAMD15 (sterile alpha motif domain containing 15): #1 -0.0636 inactive; #2 2.66 inactive; #3 0.226 inactive
KLF6 (KLF transcription factor 6): #1 4.51 active; #2 0.429 inactive; #3 -1.15 inactive
LRCH1: #1 -0.0706 inactive; #2 0.985 inactive; #3 0.0772 inactive
RPL13 (ribosomal protein L13): #1 -3.14 inactive; #2 -2.13 inactive; #3 -0.907 inactive
XAGE3 (X antigen family member 3): #1 0.329 inactive; #2 1.01 inactive; #3 -0.511 inactive
ANKRD17 (ankyrin repeat domain 17): #1 -0.593 inactive; #2 1.89 inactive; #3 -0.689 inactive
TTI2 (TELO2 interacting protein 2): #1 0.0319 inactive; #2 0.112 inactive; #3 -0.425 inactive
TEDC1 (tubulin epsilon and delta complex 1): #1 3.18 active; #2 2.76 inactive; #3 -0.548 inactive
ITLN2 (intelectin 2): #1 -0.388 inactive; #2 -0.62 inactive; #3 1.2 inactive
H2AC4 (H2A clustered histone 4): #1 -0.518 inactive; #2 -1.67 inactive; #3 -1.6 inactive
PTPN6 (protein tyrosine phosphatase non-receptor type 6): #1 -0.237 inactive; #2 -1.47 inactive; #3 2.73 inactive
DENND2B (DENN domain containing 2B): #1 -0.121 inactive; #2 -0.71 inactive; #3 -0.212 inactive
LAT2 (linker for activation of T cells family member 2): #1 0.581 inactive; #2 4.84 active; #3 1.75 inactive
ASH2L (ASH2 like, histone lysine methyltransferase complex subunit): #1 -0.456 inactive; #2 -0.846 inactive; #3 -0.855 inactive
TET3 (tet methylcytosine dioxygenase 3): #1 2.04 inactive; #2 1.09 inactive; #3 -0.678 inactive
RANBP6 (RAN binding protein 6): #1 -0.0528 inactive; #2 0.377 inactive; #3 -1.13 inactive
CDK5RAP1 (CDK5RAP1 mitochondrial tRNA methylthiotransferase): #1 -0.137 inactive; #2 0.196 inactive; #3 -1.59 inactive

Entries above whose target name starts with G or g (3):
total luciferase, z-score, by gene and reagent
GTF2F2 (general transcription factor IIF subunit 2): #1 0.276 inactive; #2 -0.558 inactive; #3 0.172 inactive
